# In article doi:10.1101/2020.11.30.404178:
# By UniProt entry, the sequences of proteins in these tests, tags left out. Where a name states a change or a piece, a line headed by the entry shows the natural chain unless it says otherwise. Chains listed by the source or under a name are the forms on record and can include a tag or linker. Residues count along the entry.
# UniProt P35869: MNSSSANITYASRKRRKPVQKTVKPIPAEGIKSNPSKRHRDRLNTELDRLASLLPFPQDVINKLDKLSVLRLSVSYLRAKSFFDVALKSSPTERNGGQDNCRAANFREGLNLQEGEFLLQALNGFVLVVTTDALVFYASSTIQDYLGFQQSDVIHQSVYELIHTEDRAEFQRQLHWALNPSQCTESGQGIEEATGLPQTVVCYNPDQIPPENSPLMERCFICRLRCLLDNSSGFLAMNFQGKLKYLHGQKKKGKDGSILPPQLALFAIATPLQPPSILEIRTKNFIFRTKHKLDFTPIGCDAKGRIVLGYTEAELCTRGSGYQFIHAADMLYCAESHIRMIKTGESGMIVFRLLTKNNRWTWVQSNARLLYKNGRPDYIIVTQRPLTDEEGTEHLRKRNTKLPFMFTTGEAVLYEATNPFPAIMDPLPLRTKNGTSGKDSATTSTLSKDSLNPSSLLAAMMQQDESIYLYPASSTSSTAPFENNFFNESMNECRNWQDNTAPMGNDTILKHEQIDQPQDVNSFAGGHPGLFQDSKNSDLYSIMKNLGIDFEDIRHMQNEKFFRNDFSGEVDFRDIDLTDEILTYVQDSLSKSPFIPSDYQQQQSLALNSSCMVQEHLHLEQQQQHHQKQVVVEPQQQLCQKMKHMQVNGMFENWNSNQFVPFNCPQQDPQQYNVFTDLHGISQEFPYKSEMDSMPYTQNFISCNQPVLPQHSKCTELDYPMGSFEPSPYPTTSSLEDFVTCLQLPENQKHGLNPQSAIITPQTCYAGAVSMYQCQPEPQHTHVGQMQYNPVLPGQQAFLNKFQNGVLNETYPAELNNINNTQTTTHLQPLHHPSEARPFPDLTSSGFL
# aryl hydrocarbon receptor (AhR) (human (endogenous in LS180)): residues 11-848 of P35869
# 6×His-tagged human AhR fragment, residues 23–273: residues 23-273 of P35869
# UniProt P27540: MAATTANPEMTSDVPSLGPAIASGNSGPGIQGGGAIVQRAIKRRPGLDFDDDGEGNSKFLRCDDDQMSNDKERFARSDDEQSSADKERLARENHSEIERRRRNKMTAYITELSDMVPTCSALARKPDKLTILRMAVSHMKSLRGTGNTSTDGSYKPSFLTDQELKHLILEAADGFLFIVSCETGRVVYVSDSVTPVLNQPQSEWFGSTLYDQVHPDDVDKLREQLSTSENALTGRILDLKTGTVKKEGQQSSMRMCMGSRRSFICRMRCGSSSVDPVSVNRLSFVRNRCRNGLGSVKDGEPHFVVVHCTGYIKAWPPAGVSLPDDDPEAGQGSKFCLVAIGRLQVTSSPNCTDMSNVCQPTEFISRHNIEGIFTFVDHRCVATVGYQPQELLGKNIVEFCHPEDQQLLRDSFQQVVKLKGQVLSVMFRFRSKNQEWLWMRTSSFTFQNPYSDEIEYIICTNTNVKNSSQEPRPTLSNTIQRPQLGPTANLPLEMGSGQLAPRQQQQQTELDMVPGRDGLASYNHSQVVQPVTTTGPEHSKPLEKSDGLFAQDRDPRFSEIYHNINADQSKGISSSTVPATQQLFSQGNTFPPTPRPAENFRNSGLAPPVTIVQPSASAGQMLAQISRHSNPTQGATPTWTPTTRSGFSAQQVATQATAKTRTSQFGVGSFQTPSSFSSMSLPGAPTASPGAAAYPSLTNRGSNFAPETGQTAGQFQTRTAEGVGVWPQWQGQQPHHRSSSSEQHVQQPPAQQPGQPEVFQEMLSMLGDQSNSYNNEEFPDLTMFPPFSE
# No constants are given. Whether binding was seen depends on the method and setting. Binding seen in cells or lysates may run through a third protein. Some entries that bind do so weakly or less than the wild type.
# Assays:
# [1] = target: aryl hydrocarbon receptor (AhR) (human (endogenous in LS180)) (UniProt P35869); experiment: co-IP
# [2] = target: 6×His-tagged human AhR fragment, residues 23–273 (human) (UniProt P35869); experiment: pull-down
Substance,binding [1],binding [2]
AhR nuclear translocator (ARNT) (from UniProt P27540 1-789),binds,
"FLAG-tagged mouse ARNT fragment, residues 85–345 (from UniProt P53762 85-345) (domain or fragment)",,binds
